Measurements reported in patent US20190177419A1 (BERGEN TEKNOLOGIOVERFORING, published 2019).
No constants are given. Whether binding was seen depends on the method and setting. Some binding calls cover weakened binding; strength is not graded here.

Sequences of proteins named here, by UniProt entry; tags and fusion partners are left off. A change or cut given only in a name is not applied to a line headed by its entry. Residues count along the entry.
UniProt P30530: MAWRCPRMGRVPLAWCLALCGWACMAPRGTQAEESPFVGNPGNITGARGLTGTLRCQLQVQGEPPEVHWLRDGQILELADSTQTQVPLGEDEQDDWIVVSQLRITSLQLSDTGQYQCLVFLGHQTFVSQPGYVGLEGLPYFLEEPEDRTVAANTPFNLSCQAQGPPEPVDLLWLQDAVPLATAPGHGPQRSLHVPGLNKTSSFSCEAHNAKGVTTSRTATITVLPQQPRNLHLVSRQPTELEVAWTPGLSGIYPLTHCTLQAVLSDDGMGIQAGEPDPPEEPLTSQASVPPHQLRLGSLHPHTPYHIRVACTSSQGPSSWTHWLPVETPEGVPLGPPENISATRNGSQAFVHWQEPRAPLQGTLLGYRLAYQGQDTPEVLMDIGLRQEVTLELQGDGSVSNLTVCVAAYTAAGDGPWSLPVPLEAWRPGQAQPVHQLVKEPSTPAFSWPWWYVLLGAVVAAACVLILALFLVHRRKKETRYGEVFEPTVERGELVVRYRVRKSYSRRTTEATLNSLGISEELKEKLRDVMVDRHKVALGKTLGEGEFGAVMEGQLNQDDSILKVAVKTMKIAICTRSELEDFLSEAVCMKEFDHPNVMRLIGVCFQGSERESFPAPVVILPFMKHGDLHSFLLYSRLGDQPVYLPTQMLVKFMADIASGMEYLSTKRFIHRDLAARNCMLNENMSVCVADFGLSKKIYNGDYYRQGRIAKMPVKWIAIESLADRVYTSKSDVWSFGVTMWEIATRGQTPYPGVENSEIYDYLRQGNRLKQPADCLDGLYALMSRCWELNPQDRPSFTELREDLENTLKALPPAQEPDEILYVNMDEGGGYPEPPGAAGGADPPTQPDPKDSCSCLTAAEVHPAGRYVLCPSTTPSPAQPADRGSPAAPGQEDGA
human Axl receptor on cells (Axl-positive MDA-MB-231 cells; HeLa cells; Axl+ cells): residues 26-894 of P30530
recombinant human Axl-Fc chimera (R&D Systems, Cat. no. 154-AL): residues 26-451 of P30530

Legend:
[1] = molecular target: human Axl receptor on cells (Axl-positive MDA-MB-231 cells; HeLa cells; Axl+ cells) (human) (UniProt P30530); experiment: flow cytometry on MDA-MB-231 cells
[2] = molecular target: recombinant human Axl-Fc chimera (R&D Systems, Cat. no. 154-AL) (human) (UniProt P30530); experiment: SPR kinetics (Biacore 3000), rhAxl-Fc immobilised on a CM5 chip, antibody series injected for 3 min [panel c10G5]
[3] = molecular target: recombinant human Axl-Fc chimera (R&D Systems, Cat. no. 154-AL) (human) (UniProt P30530); experiment: SPR, Biacore 3000, rhAxl-Fc immobilised on CM5 (1,308.0 RU), antibody 10 µg/mL
[4] = molecular target: recombinant human Axl-Fc chimera (R&D Systems, Cat. no. 154-AL) (human) (UniProt P30530); experiment: SPR (Biacore 3000), rhAxl-Fc immobilised on a CM5 chip, antibody injected at 10 µg/mL for 3 min, 5 min dissociation [panel 10G5 vs. c10G5]
[5] = molecular target: human Axl receptor on cells (Axl-positive MDA-MB-231 cells; HeLa cells; Axl+ cells) (human) (UniProt P30530); experiment: flow cytometry on MDA-MB-231 cells, detection with APC-conjugated donkey anti-human IgG (H+L) F(ab')2

Measured: binding

B1: chimeric (mouse variable/human constant) IgG1 antibody c10G5 (antibody, V domains shown)
VH: QVQLQQSGAELVRPGASVKLSCKASGYSFTDFYINWVRQRPGQGLEWIARIFPGGDNTYYNEKFKGKATLTAEESSSTAYIQLSSLTSEDSAVYFCARRGLYYAMDYWGQGISVTVSS
VL: DVLMTQTPLSLPVSLGDQASISCRSSQSLVHSNGIPYLHWYLQKPGQSPKLLIYRVSNRFSGVPDRFSGSGSGTDFTLKISRVEAEDLGVYFCSQGTHVPPTFGGGTKLEIK
notes: 10G5 VH and VL joined in frame to human IgG1 and C-kappa constant domains, made in CHO cells; also called chimeric 10G5; not shown: constant domains of the human IgG1 heavy chain; constant domain of the human light (C-kappa) chain
binds: all assays above
